No constants are given. Whether binding was seen depends on the method and setting. In cells and extracts the contact can be indirect. Tags and fused reporters may be left off the sequences shown.
How the values were obtained:
Assay in all cases: co-IP; HEK 293T cells transiently transfected with tagged constructs (or endogenous partner); lysis in 50 mM Tris-HCl pH 8.0, 150 mM NaCl, 10% glycerol, 1 mM EDTA, 1% DDM or 0.5% NP-40; anti-Flag M2, anti-c-Myc or anti-HA magnetic beads; Western blot; in Figure 6D with or without overexpressed TMEM132A
[1] = substrate: T1, SN truncation of T132A-Flag (mouse) (UniProt Q922P8)
T1 sequence: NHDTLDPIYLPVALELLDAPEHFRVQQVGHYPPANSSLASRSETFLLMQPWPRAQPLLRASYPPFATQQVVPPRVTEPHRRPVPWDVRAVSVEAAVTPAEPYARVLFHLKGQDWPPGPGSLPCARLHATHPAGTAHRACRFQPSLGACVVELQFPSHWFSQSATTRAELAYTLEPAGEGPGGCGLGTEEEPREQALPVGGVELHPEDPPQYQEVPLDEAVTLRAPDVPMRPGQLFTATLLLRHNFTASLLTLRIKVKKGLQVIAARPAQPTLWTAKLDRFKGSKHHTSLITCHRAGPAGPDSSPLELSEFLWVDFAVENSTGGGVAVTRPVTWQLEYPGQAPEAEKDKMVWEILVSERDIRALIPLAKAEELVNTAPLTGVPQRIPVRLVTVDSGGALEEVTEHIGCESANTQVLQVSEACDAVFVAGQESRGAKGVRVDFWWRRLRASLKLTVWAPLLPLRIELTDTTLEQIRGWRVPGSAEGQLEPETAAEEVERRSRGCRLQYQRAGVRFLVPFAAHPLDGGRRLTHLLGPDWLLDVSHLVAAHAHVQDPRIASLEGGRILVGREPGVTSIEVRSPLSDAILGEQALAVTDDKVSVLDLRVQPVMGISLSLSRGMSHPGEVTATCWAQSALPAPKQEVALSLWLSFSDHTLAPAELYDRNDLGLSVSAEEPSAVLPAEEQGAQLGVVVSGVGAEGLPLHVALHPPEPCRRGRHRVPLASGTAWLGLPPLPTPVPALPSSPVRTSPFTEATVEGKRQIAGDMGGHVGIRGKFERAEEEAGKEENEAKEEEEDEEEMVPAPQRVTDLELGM

[2] = substrate: T2, SNC construct of T132A-Flag (only the TM domain removed) (mouse) (UniProt Q922P8)
T2 sequence: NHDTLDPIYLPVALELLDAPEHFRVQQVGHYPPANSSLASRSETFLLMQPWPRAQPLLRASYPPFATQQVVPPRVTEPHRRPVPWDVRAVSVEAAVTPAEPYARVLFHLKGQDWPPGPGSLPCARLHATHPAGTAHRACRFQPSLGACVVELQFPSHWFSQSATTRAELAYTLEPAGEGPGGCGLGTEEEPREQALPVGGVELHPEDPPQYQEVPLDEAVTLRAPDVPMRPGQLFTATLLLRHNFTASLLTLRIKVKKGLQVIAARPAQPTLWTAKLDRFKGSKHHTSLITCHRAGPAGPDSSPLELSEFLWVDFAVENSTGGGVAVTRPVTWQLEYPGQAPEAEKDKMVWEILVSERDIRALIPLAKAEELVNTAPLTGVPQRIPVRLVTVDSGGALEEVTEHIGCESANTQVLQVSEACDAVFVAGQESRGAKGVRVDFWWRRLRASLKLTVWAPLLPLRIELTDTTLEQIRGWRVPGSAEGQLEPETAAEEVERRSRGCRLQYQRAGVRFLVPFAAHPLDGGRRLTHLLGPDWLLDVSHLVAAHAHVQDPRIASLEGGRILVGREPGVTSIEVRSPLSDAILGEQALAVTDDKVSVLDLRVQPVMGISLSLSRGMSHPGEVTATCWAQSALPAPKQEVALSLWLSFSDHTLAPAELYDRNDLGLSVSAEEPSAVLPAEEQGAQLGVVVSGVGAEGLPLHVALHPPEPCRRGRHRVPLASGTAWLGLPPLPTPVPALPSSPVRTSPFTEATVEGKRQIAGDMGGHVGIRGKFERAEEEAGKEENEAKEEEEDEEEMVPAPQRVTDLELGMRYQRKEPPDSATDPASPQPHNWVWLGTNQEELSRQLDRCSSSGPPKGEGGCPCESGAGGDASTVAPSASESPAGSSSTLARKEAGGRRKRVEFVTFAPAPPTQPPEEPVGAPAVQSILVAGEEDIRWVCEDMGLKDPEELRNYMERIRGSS

[3] = substrate: T3, C truncation of T132A-Flag (mouse) (UniProt Q922P8)
T3 sequence: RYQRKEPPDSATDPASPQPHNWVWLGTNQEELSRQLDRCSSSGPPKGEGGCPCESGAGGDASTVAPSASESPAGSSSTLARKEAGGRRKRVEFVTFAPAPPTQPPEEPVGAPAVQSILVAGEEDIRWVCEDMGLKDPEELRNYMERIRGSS

Measured: binding

B1: HA-tagged full-length WLS (FL WLS-HA) (protein, UniProt Q6DID7-1 1-541)
chain: MAGAIIENMSTKKLCIVGGILLVFQIVAFLVGGLIAPAPTTAVPYTAIKCVDVRKNHHKTRWLAPWGPNKCDKIRDIEEAIPREIEANDIVFSVHIPLPSMEMSPWFQFMLFILQLDIAFKLNNQIRENAEISMDVSLGYRDDMFSEWTEMAHERVPRKLKCTFTSPKTPEHEGRYYNCDVLPFMEIGSVAHKYYLLNIRLPVNEKKKINVGIGEIKDIRLVGIHQNGGFTKVWFAMKTFLTPSIFIIMVWYWRRITMMSRPPVLLEKVIFALGISMTFINIPVEWFSIGFDWTWMLLFGDIRQGIFYAMLLSFWIIFCGEHMMDQHERNHIAGYWKQVGPIAVGSFCLFIFDMCERGVQLTNPFYSIWTTDVGTELAMAFIIVAGICLCLYFLFLCFMVFQVFRNISGKQSSLPAMSKVRRLHYEGLIFRFKFLMLITLACAAMTVIFFIVSQVSEGHWKWGGVTVQVSSAFFTGIYGMWNLYVFALMFLYAPSHKNYGEDQSNGDLGVHSGEELQLTTTITHVDGPTEIYKLTRKEAQE
no binding: all assays above
